Measured values published in paper doi:10.1101/2021.02.18.431811.
Read-outs that look alike come from different tables or passages of the source. Results are given in words; binding and its absence hold for the method and conditions named. Binding seen in cells or lysates may run through a third protein. Some results given as binding are weak or reduced against the parent protein; the word gives no strength.

Chains of the proteins cited; added tags and fusions are not shown.
UniProt Q92736: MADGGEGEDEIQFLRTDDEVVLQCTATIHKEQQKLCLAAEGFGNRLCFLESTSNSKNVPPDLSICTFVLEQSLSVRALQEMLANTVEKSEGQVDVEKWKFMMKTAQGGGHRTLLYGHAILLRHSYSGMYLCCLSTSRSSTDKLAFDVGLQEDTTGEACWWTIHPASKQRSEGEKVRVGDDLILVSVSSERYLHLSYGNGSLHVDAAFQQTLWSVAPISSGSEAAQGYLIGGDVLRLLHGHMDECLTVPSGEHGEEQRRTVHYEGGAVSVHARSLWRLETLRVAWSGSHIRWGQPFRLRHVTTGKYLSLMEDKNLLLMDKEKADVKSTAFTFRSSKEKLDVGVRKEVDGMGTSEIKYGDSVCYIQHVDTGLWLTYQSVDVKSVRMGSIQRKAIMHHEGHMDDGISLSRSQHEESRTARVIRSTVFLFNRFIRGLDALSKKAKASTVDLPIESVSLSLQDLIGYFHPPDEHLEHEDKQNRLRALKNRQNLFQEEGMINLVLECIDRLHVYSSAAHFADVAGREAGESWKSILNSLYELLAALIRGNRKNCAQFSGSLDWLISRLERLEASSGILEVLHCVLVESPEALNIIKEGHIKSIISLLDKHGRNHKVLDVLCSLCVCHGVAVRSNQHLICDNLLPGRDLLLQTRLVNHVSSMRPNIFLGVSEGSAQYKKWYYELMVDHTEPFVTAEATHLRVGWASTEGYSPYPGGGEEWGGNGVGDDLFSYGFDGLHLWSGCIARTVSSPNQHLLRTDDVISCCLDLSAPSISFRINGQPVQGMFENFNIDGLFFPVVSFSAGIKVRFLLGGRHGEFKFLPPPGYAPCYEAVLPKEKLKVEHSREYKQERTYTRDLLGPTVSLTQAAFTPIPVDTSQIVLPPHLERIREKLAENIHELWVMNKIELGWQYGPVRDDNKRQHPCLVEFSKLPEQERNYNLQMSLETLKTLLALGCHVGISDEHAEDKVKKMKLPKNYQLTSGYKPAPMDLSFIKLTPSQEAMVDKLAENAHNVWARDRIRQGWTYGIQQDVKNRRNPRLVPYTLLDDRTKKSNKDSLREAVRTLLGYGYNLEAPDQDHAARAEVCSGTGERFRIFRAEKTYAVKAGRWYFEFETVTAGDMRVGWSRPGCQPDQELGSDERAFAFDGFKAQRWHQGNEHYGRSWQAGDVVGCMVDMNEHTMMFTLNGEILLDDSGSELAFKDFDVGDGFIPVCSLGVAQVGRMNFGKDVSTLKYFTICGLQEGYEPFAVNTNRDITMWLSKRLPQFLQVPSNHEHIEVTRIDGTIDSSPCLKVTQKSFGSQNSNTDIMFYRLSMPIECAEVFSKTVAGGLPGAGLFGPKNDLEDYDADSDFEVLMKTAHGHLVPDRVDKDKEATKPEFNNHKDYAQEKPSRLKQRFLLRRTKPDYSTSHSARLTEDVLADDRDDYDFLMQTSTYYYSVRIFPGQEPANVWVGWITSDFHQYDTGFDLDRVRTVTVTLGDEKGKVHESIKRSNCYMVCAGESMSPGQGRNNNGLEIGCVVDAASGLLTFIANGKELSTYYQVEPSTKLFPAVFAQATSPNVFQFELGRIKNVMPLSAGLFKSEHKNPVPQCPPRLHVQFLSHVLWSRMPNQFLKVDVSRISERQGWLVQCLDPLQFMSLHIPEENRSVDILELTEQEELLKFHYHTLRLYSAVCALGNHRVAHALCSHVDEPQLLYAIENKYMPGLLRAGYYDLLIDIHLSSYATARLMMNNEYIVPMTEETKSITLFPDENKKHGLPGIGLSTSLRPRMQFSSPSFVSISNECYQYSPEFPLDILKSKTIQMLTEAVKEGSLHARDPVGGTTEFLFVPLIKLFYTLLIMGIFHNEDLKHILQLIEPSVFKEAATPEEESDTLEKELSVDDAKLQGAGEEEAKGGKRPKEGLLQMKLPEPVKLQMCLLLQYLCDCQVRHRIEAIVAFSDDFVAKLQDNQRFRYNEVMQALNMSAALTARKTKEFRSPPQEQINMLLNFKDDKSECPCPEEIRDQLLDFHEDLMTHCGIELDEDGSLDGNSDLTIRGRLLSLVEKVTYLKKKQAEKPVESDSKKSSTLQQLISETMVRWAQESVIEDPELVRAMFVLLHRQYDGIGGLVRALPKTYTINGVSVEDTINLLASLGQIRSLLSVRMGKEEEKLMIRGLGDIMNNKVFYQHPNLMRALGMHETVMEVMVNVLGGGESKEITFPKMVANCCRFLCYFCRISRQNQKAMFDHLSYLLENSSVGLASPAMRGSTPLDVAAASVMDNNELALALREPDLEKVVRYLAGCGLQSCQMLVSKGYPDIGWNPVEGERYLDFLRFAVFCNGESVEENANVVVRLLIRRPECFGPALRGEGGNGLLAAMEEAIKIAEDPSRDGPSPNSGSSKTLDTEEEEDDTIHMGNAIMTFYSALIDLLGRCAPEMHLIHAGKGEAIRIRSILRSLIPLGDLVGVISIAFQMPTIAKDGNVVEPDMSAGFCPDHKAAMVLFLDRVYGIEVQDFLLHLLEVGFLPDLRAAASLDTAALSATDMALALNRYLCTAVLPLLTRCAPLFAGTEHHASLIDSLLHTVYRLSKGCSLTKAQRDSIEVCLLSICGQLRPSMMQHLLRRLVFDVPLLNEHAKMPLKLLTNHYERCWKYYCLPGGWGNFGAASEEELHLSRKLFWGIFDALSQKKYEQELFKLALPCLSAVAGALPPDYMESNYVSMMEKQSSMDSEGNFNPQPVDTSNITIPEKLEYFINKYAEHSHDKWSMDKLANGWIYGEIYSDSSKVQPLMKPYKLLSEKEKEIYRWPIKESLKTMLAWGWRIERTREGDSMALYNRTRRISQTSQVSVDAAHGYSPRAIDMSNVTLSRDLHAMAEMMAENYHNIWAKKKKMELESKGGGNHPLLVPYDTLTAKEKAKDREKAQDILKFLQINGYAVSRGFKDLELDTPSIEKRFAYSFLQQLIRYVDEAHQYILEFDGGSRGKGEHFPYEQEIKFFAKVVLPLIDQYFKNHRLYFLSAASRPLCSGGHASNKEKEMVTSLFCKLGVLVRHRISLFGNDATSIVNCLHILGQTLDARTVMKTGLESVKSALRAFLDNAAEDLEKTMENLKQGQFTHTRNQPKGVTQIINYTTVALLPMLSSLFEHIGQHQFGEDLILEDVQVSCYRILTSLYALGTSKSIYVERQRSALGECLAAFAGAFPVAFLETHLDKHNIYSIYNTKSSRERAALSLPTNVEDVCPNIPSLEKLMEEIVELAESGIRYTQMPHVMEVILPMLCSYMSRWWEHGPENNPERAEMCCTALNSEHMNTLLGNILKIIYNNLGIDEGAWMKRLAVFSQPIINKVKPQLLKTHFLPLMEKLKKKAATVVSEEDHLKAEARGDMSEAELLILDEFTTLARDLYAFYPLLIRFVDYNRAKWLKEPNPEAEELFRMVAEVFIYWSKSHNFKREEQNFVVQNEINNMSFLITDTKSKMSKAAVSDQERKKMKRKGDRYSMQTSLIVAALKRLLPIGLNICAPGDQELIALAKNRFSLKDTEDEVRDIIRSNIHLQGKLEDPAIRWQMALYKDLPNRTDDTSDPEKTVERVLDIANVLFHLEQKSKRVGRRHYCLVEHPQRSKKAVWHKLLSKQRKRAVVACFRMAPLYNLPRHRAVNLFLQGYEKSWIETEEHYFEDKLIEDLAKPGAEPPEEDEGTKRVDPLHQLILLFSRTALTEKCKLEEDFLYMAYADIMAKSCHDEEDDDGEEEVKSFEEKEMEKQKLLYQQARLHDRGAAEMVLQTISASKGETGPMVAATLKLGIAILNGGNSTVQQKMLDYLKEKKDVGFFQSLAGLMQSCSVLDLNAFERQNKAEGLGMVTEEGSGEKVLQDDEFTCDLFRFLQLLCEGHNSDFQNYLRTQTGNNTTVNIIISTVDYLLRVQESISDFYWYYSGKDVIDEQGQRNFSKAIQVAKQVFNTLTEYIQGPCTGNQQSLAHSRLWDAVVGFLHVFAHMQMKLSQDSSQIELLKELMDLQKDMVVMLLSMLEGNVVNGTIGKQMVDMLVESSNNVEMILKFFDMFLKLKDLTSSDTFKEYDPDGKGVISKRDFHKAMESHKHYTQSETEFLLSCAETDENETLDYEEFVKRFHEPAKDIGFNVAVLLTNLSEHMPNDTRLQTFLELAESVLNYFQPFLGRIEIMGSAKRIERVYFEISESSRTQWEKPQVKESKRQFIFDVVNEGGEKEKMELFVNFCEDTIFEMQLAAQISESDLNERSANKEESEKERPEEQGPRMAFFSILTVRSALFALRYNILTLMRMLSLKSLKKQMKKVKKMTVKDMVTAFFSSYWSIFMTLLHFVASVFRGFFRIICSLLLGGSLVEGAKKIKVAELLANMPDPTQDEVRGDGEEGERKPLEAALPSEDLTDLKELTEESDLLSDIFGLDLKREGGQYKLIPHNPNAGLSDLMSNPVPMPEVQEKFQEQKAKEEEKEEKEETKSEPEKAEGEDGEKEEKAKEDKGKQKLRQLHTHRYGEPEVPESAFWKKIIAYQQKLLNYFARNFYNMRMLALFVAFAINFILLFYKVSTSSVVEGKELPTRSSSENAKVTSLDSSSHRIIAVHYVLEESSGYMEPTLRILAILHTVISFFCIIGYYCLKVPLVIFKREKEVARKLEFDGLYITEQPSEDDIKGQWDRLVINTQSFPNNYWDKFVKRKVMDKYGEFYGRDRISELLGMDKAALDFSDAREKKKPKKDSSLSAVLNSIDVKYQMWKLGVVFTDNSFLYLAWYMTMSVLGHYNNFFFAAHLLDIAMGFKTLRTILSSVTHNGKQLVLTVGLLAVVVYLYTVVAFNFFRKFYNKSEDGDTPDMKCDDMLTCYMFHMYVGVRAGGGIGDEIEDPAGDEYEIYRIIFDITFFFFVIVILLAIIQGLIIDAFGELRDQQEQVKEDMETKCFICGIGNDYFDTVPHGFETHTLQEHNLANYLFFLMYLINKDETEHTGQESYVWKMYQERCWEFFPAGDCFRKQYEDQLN
UniProt P68106: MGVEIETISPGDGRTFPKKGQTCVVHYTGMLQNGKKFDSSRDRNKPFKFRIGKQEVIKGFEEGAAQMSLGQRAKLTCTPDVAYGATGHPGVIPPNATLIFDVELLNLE

Experiments:
[1] = molecular target: ryanodine receptor/calcium (Ca2+) release channel RyR2 (human (endogenous in heart, lung and brain tissue)) (UniProt Q92736); experiment: co-IP
[2] = molecular target: ryanodine receptor/calcium (Ca2+) release channel RyR2 (human (endogenous in heart, lung and brain tissue)) (UniProt Q92736); experiment: co-IP; remark: listed apart in the source

Which binding [1] does the source give for calstabin2 (from UniProt P68106 1-108) here?
Its binding is “binds”.

B1: NADPH oxidase 2 (NOX2) (protein, UniProt P04839 1-570)
chain: MGNWAVNEGLSIFVILVWLGLNVFLFVWYYRVYDIPPKFFYTRKLLGSALALARAPAACLNFNCMLILLPVCRNLLSFLRGSSACCSTRVRRQLDRNLTFHKMVAWMIALHSAIHTIAHLFNVEWCVNARVNNSDPYSVALSELGDRQNESYLNFARKRIKNPEGGLYLAVTLLAGITGVVITLCLILIITSSTKTIRRSYFEVFWYTHHLFVIFFIGLAIHGAERIVRGQTAESLAVHNITVCEQKISEWGKIKECPIPQFAGNPPMTWKWIVGPMFLYLCERLVRFWRSQQKVVITKVVTHPFKTIELQMKKKGFKMEVGQYIFVKCPKVSKLEWHPFTLTSAPEEDFFSIHIRIVGDWTEGLFNACGCDKQEFQDAWKLPKIAVDGPFGTASEDVFSYEVVMLVGAGIGVTPFASILKSVWYKYCNNATNLKLKKIYFYWLCRDTHAFEWFADLLQLLESQMQERNNAGFLSYNIYLTGWDESQANHFAVHHDEEKDVITGLKQKTLYGRPNWDNEFKTIASQHPNTRIGVFLCGPEALAETLSKQSISNSESGPRGVHFIFNKENF
Which binding [2] does the source give for B1 here?
The binding was “binds”.
